Results are given in words; binding and its absence hold for the method and conditions named. Binding seen in cells or lysates may run through a third protein. Some entries that bind do so weakly or less than the wild type.

Chains of the proteins cited; added tags and fusions are not shown. Lines headed by an entry give the natural chain unless they say otherwise; changes in a name come on top.
UniProt P15941: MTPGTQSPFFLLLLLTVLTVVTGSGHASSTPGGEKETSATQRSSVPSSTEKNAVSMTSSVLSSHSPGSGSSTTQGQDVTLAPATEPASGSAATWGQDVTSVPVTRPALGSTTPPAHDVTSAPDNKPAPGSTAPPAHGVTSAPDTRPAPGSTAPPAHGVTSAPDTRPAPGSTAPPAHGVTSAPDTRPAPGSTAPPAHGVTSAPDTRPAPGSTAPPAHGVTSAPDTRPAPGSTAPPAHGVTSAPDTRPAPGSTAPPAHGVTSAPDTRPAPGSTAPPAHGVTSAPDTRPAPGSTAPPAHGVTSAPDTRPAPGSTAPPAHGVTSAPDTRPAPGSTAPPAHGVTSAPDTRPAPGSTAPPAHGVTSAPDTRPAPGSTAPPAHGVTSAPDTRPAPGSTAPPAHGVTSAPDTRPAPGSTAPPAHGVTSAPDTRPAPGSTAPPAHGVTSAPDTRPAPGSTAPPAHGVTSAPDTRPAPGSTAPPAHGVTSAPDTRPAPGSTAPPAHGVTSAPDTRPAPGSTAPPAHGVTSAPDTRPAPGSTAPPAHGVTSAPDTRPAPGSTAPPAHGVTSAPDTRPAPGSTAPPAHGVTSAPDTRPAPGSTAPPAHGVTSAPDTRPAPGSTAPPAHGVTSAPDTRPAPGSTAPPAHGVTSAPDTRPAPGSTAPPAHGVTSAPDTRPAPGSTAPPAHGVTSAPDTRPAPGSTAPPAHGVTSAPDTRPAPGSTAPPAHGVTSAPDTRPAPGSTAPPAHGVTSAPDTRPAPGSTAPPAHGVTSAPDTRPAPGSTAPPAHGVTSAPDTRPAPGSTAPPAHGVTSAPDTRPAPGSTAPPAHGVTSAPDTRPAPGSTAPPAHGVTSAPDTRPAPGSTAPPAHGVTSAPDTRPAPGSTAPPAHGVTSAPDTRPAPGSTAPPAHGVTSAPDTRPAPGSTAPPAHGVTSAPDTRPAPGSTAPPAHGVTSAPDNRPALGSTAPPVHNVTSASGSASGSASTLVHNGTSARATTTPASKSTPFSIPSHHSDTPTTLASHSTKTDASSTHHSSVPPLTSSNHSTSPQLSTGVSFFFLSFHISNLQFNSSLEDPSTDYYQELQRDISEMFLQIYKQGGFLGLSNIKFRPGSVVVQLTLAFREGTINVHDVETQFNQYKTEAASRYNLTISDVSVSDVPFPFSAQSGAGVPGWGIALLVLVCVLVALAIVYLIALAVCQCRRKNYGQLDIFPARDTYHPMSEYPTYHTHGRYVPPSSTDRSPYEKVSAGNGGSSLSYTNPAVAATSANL

Assay [1] addresses T1, HER2/ERBB2 receptor tyrosine kinase (human, UniProt P04626 23-1255).
T1 construct: whole, on cells; Endogenous HER2 in cell lysates, detected by anti-HER2 immunoblot of precipitates or GST adsorbates; also called Neu; CD340
Put plainly: GST pull-down from cell lysates (discussion of the results).

Assay [2] concerns the target T1, HER2/ERBB2 receptor tyrosine kinase. Put plainly: GST-MUC1-CD pull-down from SKBR3 lysates (similar results told for BT474), anti-HER2 immunoblot (FIG. 2A).

Take “GST-MUC1-CD fusion protein (from UniProt P15941 1184-1255)”: the binding result in assay [1] and in assay [2] was “binds” in each case.

These data come from patent US20160074468A1 (GENUS ONCOLOGY, published 2016).
